Assay results taken from the supplement of paper PMC11006884.
The list shows a part of the results, in another mix than the full data. This is a noisy data set.

Protein sequences, listed by entry. Tags and fused reporters are not part of them. Lines headed by an entry give the natural chain unless they say otherwise; changes in a name come on top.
UniProt P13489: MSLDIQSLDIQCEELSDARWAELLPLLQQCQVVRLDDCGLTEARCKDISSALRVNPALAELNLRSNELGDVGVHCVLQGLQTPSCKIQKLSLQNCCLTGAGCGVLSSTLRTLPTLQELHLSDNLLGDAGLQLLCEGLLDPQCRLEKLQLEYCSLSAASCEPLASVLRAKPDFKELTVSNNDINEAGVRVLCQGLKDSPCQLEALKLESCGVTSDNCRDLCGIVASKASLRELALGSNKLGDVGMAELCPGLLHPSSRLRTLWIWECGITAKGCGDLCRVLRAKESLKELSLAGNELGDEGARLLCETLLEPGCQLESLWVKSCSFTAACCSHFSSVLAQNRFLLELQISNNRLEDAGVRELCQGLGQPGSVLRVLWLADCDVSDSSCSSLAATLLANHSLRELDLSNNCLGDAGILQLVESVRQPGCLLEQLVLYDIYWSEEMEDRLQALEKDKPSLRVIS
UniProt P09382, whole entry, looked up: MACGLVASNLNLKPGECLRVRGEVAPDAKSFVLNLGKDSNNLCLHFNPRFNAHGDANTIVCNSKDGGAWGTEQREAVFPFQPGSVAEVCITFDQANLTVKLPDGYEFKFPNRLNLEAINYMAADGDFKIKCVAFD
UniProt P11802: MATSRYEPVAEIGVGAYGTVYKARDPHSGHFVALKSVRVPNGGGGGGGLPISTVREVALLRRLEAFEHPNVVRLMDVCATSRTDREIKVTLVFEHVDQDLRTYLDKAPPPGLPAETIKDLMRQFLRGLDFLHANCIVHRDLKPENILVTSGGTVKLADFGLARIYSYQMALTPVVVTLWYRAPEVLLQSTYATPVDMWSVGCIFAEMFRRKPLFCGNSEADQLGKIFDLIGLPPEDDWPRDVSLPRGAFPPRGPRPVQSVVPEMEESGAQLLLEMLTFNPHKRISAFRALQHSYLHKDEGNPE
UniProt P13667: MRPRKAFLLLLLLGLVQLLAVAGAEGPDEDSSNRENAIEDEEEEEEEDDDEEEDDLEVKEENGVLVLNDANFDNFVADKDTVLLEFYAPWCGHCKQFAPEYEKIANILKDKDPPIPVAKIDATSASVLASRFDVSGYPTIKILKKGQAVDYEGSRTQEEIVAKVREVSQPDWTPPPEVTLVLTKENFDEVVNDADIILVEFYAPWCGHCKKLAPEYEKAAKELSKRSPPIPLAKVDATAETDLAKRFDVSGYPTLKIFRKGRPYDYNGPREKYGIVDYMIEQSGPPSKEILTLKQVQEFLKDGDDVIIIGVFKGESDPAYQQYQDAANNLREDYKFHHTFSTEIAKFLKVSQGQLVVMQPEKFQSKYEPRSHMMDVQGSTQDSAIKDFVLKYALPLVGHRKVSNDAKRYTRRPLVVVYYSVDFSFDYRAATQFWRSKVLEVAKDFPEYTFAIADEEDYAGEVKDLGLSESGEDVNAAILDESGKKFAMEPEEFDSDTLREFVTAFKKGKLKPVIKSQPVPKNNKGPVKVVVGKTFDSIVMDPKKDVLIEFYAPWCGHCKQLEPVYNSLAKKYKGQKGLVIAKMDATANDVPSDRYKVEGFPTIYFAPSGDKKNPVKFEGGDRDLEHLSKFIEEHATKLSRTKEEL
UniProt P14866: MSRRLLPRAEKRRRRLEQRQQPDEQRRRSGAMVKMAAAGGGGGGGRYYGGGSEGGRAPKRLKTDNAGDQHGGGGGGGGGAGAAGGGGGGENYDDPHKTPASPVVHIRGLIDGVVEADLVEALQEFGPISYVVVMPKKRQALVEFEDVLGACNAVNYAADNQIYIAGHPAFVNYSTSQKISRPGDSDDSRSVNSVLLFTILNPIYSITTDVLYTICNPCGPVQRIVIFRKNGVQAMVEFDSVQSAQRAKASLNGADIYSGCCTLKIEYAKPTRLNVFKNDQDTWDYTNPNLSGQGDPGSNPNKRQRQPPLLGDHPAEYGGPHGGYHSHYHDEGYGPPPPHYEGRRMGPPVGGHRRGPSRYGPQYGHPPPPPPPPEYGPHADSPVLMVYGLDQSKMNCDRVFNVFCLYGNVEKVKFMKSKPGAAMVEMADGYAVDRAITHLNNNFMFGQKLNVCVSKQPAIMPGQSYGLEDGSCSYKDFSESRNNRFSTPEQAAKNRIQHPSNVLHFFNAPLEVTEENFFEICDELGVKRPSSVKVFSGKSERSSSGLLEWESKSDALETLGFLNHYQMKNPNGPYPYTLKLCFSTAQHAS
UniProt P11387: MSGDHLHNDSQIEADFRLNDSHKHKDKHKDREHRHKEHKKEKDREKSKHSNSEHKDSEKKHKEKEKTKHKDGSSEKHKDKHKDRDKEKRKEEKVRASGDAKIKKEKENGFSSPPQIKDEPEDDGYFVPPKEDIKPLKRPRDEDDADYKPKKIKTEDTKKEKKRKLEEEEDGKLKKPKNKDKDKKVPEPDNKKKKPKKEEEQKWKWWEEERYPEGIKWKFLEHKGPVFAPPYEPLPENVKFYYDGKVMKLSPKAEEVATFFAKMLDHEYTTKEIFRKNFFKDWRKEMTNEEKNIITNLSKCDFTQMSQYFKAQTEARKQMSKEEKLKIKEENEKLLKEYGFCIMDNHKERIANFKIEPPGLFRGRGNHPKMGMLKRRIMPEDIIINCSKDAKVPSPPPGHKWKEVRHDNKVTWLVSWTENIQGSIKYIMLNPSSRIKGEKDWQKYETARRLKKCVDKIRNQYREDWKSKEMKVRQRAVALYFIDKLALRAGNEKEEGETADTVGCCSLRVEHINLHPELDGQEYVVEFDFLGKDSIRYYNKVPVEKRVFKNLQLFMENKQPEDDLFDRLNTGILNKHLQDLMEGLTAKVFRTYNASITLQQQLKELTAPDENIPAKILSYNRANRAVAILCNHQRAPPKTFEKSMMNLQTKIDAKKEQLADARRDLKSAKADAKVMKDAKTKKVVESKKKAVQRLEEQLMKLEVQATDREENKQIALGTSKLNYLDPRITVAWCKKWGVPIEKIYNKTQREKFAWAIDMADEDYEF
UniProt P08047, whole entry, looked up: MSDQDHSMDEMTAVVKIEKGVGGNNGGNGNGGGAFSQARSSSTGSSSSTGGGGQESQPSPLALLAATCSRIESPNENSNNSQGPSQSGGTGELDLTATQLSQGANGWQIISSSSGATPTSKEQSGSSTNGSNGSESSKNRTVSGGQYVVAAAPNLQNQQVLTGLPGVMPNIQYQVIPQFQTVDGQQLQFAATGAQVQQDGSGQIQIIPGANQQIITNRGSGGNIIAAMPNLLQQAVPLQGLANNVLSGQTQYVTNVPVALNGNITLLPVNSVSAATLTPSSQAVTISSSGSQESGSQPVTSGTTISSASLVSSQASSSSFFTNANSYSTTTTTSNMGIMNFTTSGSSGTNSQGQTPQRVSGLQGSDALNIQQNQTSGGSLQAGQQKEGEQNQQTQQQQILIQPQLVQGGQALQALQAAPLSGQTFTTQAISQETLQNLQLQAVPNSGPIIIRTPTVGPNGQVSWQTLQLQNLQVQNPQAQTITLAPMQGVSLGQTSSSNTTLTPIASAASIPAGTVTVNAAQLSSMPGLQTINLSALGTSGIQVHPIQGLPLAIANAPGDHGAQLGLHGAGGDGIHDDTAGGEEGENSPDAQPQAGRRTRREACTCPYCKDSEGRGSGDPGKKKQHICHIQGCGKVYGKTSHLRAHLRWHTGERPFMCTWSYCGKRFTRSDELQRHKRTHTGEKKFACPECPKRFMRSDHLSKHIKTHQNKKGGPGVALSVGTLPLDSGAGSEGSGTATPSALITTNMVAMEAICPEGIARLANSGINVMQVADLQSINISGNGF
UniProt P11940, whole entry, looked up: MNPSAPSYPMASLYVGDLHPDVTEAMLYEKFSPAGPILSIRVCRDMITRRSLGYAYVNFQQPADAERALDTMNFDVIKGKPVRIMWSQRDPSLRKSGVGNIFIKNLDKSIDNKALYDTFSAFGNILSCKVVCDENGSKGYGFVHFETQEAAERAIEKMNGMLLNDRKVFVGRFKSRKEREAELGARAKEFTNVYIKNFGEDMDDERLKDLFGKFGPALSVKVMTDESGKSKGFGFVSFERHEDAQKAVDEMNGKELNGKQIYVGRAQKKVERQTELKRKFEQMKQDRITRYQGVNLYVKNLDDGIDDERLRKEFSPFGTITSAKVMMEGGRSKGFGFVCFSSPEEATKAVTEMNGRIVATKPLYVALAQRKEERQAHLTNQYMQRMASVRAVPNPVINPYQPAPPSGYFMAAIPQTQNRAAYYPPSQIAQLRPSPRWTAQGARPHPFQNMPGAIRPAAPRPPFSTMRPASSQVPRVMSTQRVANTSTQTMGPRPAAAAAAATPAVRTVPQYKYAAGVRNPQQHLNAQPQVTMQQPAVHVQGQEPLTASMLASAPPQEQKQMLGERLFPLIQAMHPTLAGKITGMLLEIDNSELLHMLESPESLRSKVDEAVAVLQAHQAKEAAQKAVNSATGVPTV
UniProt P07948: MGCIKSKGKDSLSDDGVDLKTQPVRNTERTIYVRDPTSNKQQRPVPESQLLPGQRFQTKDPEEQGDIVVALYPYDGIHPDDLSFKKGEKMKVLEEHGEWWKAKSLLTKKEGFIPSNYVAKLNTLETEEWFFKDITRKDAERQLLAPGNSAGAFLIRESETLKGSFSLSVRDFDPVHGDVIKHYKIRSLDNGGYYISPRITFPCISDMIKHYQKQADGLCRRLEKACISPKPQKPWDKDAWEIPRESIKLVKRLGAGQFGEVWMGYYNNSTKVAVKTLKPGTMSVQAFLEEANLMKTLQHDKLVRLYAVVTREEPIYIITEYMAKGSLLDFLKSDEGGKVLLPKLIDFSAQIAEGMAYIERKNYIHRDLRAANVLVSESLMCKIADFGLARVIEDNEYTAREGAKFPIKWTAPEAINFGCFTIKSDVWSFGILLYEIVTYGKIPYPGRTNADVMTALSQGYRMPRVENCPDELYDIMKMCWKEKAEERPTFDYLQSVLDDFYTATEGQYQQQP
UniProt P13807: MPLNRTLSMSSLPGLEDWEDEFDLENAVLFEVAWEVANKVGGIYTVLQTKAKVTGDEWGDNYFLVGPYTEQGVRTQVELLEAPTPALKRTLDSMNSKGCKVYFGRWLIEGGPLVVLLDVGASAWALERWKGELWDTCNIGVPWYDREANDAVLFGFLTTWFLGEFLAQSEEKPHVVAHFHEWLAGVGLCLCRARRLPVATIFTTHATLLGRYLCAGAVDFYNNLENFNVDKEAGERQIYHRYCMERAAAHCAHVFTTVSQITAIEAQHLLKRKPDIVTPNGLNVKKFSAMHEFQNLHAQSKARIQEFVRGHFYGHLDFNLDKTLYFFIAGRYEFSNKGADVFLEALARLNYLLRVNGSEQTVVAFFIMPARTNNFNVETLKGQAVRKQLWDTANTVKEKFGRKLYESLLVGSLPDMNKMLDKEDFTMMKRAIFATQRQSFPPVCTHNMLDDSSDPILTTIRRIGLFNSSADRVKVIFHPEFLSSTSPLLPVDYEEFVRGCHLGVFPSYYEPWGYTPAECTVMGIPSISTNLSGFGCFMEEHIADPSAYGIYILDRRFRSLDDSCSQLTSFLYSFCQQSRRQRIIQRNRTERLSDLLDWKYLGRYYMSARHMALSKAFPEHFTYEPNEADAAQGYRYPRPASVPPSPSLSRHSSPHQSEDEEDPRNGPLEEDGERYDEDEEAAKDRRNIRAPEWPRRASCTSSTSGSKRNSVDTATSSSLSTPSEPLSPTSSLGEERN
UniProt P12081: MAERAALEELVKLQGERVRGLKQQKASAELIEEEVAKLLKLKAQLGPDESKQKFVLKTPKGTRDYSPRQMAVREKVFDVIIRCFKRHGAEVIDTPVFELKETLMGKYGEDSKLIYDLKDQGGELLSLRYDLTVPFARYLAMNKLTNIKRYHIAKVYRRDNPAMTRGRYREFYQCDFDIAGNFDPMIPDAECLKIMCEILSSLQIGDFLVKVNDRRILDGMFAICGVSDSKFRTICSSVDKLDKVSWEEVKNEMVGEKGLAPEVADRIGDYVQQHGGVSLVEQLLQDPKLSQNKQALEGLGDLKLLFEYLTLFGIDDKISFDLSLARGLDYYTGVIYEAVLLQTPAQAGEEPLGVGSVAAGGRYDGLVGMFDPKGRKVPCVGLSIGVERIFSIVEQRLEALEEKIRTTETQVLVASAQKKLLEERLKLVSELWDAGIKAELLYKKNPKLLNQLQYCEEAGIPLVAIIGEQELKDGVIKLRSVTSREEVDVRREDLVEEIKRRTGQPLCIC
UniProt P11413, whole entry, looked up: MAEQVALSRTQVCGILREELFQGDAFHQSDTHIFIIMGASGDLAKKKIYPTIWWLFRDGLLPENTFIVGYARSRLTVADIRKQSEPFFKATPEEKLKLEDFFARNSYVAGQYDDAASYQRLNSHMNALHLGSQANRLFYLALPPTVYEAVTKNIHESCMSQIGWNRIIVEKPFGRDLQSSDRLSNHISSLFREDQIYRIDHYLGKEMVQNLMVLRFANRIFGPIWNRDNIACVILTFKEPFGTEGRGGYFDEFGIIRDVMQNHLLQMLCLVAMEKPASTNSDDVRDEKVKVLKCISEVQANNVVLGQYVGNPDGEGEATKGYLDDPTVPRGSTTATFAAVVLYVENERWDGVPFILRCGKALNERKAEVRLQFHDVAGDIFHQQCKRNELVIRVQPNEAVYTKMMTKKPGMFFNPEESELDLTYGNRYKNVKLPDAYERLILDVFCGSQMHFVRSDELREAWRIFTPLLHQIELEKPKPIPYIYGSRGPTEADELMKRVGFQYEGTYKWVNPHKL

compound: COC(=O)/C=C/c1ccccc1 [methyl cinnamate]; assay: log2 ratio of iodoacetamide-alkyne labeling of the cysteine site, DMSO over compound (competition); higher = stronger covalent engagement of the cysteine by the compound, active = 1 or more; settings: 500 µM; treatment time 1 h; system: HEK293T cell lysate
Method in brief: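 Electrophile (500 µM) or vehicle was added to HEK293T lysate (2 mg/mL) for 1 h at ambient temperature before iodoacetamide alkyne labelling (1 h) and click coupling to sCIP-TMT reagents. After pooling, overnight trypsin digestion at 37 °C, streptavidin enrichment and acid elution, peptides were measured by Orbitrap Eclipse LC-MS/MS with FAIMS and quantified in FragPipe. Each cysteine's log2 competition ratio compares mean control-channel with mean compound-channel reporter intensity, control over compound. Data came from duplicate channels across three replicates, excluding cysteines quantified in only one replicate.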

log2 ratio of iodoacetamide-alkyne labeling, inactive:
UniProt P0DN79_C244 0.281
RNH1 C12 (UniProt P13489) -0.0835
U2AF1L5 C18 (UniProt P0DN76) -0.244
EEF2 C567 (UniProt P13639) 0.0751
LGALS1 C17 (UniProt P09382) 0.292
HSPD1 C237 (UniProt P10809) 0.247
CDK4 C78 (UniProt P11802) 0.155
PDIA4 C206 (UniProt P13667) 0.557
HNRNPL C404 (UniProt P14866) -0.0729
TOP1 C300 (UniProt P11387) 0.25
SP1 C755 (UniProt P08047) 0.00509
DARS C349 (UniProt P14868) -0.0649
RPS2 C188 (UniProt P15880) 0.0511
CDK4 C135 (UniProt P11802) 0.0581
PABPC1 C339 (UniProt P11940) 0.167
LYN C468 (UniProt P07948) -0.0479
U2AF1L5 C163 (UniProt P0DN76) -0.00308
SNRPB C43 (UniProt P14678) 0.0686
DSP C57 (UniProt P15924) 0.298
GYS1 C575 (UniProt P13807) 0.327
HARS C507 (UniProt P12081) 0.0803
G6PD C232 (UniProt P11413) -0.06

Looked up one by one from the list above (2):
log2 ratio of iodoacetamide-alkyne labeling, inactive:
RNH1 C12 (UniProt P13489) -0.0835
SNRPB C43 (UniProt P14678) 0.0686
